Laboratory results reported in PMC8463077.
No constants are given. Whether binding was seen depends on the method and setting. Binding seen in cells or lysates may run through a third protein. Binding can be weak; no strength is given. For part of these data: Sequences can lack the tags named with a protein. Values belong to the molecule of their own block, whether it stands above or below them.

The chains behind the UniProt entries cited, without tags or fusion partners. Where a name states a change or a piece, a line headed by the entry shows the natural chain unless it says otherwise.
UniProt Q9GZV5: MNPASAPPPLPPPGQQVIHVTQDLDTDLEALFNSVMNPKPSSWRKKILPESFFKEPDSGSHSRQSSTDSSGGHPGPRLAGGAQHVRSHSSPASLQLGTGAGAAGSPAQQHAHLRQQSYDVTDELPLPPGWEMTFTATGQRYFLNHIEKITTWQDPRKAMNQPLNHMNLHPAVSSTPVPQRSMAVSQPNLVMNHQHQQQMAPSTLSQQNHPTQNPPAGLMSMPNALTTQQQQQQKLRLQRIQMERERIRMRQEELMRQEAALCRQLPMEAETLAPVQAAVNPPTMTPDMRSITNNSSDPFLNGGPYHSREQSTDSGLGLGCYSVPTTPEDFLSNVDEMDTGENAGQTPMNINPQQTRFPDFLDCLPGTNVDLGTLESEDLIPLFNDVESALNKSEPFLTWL
UniProt P46937: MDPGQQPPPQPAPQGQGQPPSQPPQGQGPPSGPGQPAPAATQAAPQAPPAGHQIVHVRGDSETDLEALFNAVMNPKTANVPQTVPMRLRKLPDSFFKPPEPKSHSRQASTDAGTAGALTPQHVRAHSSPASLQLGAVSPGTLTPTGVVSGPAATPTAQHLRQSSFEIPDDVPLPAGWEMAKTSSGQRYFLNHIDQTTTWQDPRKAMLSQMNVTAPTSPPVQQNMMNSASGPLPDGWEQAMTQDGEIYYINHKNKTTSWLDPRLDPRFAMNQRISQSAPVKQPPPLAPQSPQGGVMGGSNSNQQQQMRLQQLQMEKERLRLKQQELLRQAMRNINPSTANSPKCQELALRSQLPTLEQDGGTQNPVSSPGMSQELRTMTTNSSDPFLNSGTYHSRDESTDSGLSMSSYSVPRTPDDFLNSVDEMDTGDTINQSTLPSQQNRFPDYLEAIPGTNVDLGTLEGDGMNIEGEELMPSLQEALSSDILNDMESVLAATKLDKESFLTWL
UniProt P40763: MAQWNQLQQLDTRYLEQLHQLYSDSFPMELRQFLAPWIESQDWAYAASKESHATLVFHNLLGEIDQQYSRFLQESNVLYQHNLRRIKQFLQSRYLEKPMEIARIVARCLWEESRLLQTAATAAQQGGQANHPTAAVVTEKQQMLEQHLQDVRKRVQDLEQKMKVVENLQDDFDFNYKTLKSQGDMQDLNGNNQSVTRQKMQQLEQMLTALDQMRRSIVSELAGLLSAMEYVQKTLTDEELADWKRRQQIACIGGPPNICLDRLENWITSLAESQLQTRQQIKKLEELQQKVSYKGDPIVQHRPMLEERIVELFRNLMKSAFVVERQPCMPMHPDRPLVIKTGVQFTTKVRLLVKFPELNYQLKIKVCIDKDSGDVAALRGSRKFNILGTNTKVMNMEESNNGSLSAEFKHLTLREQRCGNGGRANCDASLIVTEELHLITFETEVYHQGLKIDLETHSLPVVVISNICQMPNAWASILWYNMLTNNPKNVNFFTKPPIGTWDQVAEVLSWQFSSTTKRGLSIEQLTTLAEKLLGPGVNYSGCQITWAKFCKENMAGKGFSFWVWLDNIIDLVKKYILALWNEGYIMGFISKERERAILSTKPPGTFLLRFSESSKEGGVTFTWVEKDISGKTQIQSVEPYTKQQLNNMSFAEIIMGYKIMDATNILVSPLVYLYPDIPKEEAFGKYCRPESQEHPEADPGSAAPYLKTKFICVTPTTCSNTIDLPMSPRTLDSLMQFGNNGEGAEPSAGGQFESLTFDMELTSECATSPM

Experiments:
Experiment in all cases: co-IP; HA-tagged YAP or TAZ derivatives co-expressed with FLAG-tagged STAT3 or JUNB in 293T cells for 2 days; IP with anti-HA antibody or control IgG, Dynabead protein G; co-IP buffer 50 mM Tris pH 7.5, 100 mM NaCl, 1.5 mM EGTA, 0.1% Triton X-100; 4°C overnight
[1] = target: HA-tagged TAZ derivative lacking the TEAD domain (UniProt Q9GZV5)
[2] = target: HA-tagged TAZ derivative lacking the WW domain (UniProt Q9GZV5)
[3] = target: HA-tagged YAP derivative lacking the TEAD domain (UniProt P46937)
[4] = target: HA-tagged YAP derivative lacking the WW2 domain (UniProt P46937)

binding [1]: binds | binding [2]: binds | binding [3]: binds | binding [4]: binds
Molecule: FLAG-tagged STAT3 (from UniProt P40763 1-770)

binding [2]: binds | binding [4]: binds
B1: FLAG-tagged JUNB (protein, UniProt P17275 1-347)
chain: MCTKMEQPFYHDDSYTATGYGRAPGGLSLHDYKLLKPSLAVNLADPYRSLKAPGARGPGPEGGGGGSYFSGQGSDTGASLKLASSELERLIVPNSNGVITTTPTPPGQYFYPRGGGSGGGAGGAGGGVTEEQEGFADGFVKALDDLHKMNHVTPPNVSLGATGGPPAGPGGVYAGPEPPPVYTNLSSYSPASASSGGAGAAVGTGSSYPTTTISYLPHAPPFAGGHPAQLGLGRGASTFKEEPQTVPEARSRDATPPVSPINMEDQERIKVERKRLRNRLAATKCRKRKLERIARLEDKVKTLKAENAGLSSTAGLLREQVAQLKQKVMTHVSNGCQLLLGVKGHAF
